Laboratory results reported in publication PMC12223778.
Results are given in words; binding and its absence hold for the method and conditions named. In cells and extracts the contact can be indirect. Some results given as binding are weak or reduced against the parent protein; the word gives no strength.

Chains of the proteins cited; added tags and fusions are not shown.
UniProt P51149: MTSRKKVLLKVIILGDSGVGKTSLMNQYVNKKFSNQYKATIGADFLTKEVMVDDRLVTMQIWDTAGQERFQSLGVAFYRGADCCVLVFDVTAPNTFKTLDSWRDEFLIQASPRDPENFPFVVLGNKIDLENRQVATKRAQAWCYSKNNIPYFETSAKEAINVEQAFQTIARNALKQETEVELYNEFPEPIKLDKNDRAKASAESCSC

Target: T1, Sestrin2 (SESN2) in HK-2 cells (human (endogenous in HK-2)) (UniProt P58004)
T1 sequence: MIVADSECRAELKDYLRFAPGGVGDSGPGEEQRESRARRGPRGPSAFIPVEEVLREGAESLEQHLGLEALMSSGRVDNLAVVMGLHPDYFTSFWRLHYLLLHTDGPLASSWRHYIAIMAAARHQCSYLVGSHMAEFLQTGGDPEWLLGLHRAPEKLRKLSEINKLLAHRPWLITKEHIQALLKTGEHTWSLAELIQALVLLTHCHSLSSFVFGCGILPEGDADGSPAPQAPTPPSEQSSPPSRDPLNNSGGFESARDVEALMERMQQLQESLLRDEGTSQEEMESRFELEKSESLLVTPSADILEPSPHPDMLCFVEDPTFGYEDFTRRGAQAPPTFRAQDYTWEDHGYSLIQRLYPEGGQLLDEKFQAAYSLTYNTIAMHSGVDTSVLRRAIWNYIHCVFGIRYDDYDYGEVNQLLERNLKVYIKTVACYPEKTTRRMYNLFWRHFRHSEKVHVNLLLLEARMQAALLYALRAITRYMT
Assay: co-IP; anti-SESN2 or anti-Rab-7a antibody on protein A magnetic beads, incubated with HK-2 cell lysates overnight at 4 °C; western blotting

## Rab-7a (from UniProt P51149 1-207)
  binding: binds
